PubChem BioAssay (EPA / NIEHS)
Inconclusive means that the source gave no clear call. Such entries were picked first, then a sample of the others. Where the call is inconclusive, the potency comes from a doubtful curve fit. The source made the active and inactive calls. Rule for the calls: active = hit-call score of the fitted dose curve at least 0.9, where 1 is the maximum; inconclusive = response in the unintended direction; inactive = score below 0.9.

Amino acid sequences for entries named in this document (tags omitted). A change or cut given only in a name is not applied to a line headed by its entry.
UniProt P37231: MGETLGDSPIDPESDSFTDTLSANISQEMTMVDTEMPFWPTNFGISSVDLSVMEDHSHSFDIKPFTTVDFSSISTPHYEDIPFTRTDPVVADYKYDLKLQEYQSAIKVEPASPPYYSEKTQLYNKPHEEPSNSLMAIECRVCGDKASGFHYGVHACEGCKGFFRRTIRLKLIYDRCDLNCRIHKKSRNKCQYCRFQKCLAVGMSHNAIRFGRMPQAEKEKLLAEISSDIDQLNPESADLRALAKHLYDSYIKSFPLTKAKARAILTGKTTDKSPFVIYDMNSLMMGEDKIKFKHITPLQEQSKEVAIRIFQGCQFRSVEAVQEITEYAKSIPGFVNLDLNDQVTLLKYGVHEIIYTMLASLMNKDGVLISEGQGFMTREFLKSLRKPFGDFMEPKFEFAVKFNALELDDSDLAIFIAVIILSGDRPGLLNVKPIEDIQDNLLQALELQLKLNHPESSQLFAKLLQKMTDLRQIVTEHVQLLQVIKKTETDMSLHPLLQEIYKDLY
UniProt P13631, whole entry, looked up: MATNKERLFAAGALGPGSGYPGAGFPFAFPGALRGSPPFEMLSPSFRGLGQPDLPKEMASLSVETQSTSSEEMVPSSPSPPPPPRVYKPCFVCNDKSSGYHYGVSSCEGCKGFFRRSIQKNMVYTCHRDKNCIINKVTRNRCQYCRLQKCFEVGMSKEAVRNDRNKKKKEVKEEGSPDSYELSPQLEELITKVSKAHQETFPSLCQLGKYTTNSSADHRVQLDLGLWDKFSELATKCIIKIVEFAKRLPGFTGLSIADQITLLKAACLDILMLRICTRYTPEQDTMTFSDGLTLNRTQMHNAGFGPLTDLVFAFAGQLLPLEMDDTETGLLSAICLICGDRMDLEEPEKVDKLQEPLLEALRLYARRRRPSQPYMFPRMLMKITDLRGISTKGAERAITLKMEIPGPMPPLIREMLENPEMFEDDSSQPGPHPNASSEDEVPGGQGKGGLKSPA
UniProt Q92753: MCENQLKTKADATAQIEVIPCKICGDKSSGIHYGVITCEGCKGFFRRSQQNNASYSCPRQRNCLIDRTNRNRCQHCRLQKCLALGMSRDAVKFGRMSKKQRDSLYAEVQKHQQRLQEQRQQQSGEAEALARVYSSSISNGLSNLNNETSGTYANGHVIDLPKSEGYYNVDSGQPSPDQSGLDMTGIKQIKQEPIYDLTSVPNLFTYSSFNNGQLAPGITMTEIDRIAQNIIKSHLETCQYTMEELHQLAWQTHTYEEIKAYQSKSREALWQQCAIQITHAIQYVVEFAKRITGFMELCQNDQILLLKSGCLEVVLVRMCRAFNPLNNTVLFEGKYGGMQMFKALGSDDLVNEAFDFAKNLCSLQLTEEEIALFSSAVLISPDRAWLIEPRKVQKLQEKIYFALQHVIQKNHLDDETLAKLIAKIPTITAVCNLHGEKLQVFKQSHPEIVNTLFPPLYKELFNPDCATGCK
UniProt P51449: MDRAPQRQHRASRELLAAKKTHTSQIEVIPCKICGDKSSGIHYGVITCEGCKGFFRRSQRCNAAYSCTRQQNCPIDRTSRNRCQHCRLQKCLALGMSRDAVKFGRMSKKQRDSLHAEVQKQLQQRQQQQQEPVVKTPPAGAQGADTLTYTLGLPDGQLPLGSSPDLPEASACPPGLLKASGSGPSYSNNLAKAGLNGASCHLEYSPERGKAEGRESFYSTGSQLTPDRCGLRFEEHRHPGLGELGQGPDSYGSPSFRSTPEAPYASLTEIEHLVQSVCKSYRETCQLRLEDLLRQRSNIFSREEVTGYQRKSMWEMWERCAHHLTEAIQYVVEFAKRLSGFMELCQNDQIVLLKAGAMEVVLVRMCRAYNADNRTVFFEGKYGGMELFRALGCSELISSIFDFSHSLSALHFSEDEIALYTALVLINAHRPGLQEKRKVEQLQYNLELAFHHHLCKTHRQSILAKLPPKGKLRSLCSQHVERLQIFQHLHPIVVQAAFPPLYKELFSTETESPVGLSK
UniProt P19793: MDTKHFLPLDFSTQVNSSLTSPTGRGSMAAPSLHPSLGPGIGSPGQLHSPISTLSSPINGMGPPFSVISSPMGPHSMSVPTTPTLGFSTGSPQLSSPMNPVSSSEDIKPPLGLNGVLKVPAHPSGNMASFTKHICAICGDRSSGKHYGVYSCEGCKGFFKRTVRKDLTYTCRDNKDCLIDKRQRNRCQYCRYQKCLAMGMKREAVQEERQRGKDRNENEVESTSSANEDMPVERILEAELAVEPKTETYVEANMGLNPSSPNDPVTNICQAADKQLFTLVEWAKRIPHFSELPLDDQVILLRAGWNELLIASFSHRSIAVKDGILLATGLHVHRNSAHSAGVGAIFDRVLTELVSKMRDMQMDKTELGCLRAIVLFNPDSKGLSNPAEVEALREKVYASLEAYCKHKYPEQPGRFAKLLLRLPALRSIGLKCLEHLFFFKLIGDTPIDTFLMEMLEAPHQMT
UniProt P28702: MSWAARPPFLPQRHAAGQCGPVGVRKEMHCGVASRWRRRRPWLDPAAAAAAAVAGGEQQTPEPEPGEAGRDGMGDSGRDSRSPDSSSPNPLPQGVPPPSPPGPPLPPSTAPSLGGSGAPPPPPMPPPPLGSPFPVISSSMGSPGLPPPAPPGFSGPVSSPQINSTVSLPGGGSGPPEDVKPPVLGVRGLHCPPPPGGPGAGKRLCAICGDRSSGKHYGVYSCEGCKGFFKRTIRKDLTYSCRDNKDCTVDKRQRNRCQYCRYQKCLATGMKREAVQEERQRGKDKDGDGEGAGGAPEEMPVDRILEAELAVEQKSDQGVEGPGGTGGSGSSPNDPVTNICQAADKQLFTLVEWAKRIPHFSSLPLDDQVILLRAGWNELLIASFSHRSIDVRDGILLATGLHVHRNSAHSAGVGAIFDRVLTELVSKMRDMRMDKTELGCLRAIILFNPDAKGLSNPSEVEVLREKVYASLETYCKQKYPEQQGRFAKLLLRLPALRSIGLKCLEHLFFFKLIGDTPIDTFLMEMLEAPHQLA
UniProt P10827: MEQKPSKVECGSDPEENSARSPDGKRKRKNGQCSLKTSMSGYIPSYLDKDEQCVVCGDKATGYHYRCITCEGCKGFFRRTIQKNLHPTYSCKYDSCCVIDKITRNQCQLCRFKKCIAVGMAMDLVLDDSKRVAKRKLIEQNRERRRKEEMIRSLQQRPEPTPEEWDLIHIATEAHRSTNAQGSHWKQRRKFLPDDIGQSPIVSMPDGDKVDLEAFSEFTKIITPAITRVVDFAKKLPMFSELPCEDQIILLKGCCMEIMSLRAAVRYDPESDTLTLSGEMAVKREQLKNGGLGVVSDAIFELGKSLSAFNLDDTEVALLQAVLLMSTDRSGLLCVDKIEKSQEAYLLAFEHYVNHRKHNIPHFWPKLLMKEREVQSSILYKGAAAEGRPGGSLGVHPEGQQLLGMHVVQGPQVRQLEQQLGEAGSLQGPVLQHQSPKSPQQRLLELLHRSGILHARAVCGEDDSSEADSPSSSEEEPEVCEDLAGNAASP
UniProt P11473: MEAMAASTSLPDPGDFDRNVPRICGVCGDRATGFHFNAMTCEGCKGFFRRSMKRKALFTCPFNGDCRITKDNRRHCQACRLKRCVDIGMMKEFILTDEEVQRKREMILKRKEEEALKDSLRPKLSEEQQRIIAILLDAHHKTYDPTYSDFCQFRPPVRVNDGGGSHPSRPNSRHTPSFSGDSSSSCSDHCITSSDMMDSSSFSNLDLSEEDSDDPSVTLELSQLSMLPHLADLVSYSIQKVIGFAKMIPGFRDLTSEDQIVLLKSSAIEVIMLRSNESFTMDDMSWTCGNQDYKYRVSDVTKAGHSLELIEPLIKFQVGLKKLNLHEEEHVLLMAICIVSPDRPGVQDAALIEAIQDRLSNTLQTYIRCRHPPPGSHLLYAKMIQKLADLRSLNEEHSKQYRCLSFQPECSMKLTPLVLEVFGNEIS

Columns and labels:
[1] = molecular target: Peroxisome proliferator-activated receptor gamma (Homo sapiens) (UniProt P37231); assay: ATG_PPARg_TRANS: Attagene TRANS-FACTORIAL HepG2 Assay for human Peroxisome Proliferator-activated Receptor-gamma (PPARg) (AID 2283007)
Procedure, shortened: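 Gain-of-signal endpoint relative to DMSO, derived from reporter mRNA levels quantified by RT-PCR and capillary electrophoresis. Cells were HepG2 transiently expressing a chimeric NR-Gal4 construct with GAL4-UAS reporters, exposed to chemicals for 24 h.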

[2] = molecular target: human Retinoic Acid Receptor gamma (RARg), RARG (gene 5916) (UniProt P13631); assay: ATG_RARg_TRANS: Attagene TRANS-FACTORIAL HepG2 Assay for human Retinoic Acid Receptor gamma (RARg) (AID 2283009);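 for AC50: AC50 is for reporter induction above DMSO meaning RARg activation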
Procedure, shortened: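 Gain-of-signal relative to DMSO is reported from fluorescent capillary electrophoresis of RT-PCR reporter products. These came from HepG2 cells expressing transfected RARg-GAL4 chimeras with UAS reporters, harvested 24 h after dosing.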

[3] = molecular target: human RAR-related Orphan Receptor beta (RORb), RORB (gene 6096) (UniProt Q92753); assay: ATG_RORb_TRANS: Attagene TRANS-FACTORIAL HepG2 Assay for human RAR-related Orphan Receptor beta (RORb) (AID 2283010);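 for AC50: potency for increased reporter mRNA meaning activation of RORb-Gal4 chimera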
Procedure, shortened: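 Multiplexed transcription-factor reporter assay: HepG2 cells transiently carrying NR-Gal4/GAL4-UAS constructs, 24 h treatment, mRNA quantified by RT-PCR plus capillary electrophoresis fluorescence; activity scored as induction over DMSO.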

[4] = molecular target: human RAR-related Orphan Receptor gamma (RORg), RORC (gene 6097) (UniProt P51449); assay: ATG_RORg_TRANS: Attagene TRANS-FACTORIAL HepG2 Assay for human RAR-related Orphan Receptor gamma (RORg) (AID 2283011);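 for AC50: potency for induction of reporter transcripts above DMSO so activators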
Procedure, shortened: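 Transient MRTU transfection of HepG2 (TRANS format, exogenous NR-Gal4 chimera). 24 h dosing. Total RNA → oligo(dT) RT → PCR → 6-FAM labelling → HpaI cut → CE. Gain vs DMSO.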

[5] = molecular target: Retinoic acid receptor RXR-alpha (Homo sapiens) (UniProt P19793); assay: ATG_RXRa_TRANS: Attagene TRANS-FACTORIAL HepG2 Assay for human Retinoid X Receptor alpha (RXRa) (AID 2283012)
Procedure, shortened: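 Chimeric NR-GAL4 trans-activation in HepG2, 24 h treatment; reporter transcripts quantified by fluorescence on capillary electrophoresis, analysed for upward change from DMSO.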

[6] = molecular target: human Retinoid X Receptor beta (RXRb), RXRB (gene 6257) (UniProt P28702); assay: ATG_RXRb_TRANS: Attagene TRANS-FACTORIAL HepG2 Assay for human Retinoid X Receptor beta (RXRb) (AID 2283013)
Procedure, shortened: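 After a 24 h incubation with test chemical, transfected HepG2 cells carrying NR-Gal4 fusions and GAL4-UAS reporter transcription units yield RNA whose reporter cDNA is FAM-labelled, HpaI-cut and sized by capillary electrophoresis; increases over DMSO are scored.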

[7] = molecular target: human Thyroid Receptor alpha (THRa1), THRA (gene 7067) (UniProt P10827); assay: ATG_THRa1_TRANS: Attagene TRANS-FACTORIAL HepG2 Assay for human Thyroid Receptor alpha (THRa1) (AID 2283014)
Procedure, shortened: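 Transient HepG2 transfection, NR-Gal4 chimera driving GAL4-UAS reporters; 24 h compound exposure; total RNA, oligo(dT) RT, PCR, fluorescent primer extension, capillary electrophoresis. Upward direction vs DMSO control.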

[8] = molecular target: human Vitamin D Receptor (VDR), VDR (gene 7421) (UniProt P11473); assay: ATG_VDR_TRANS: Attagene TRANS-FACTORIAL HepG2 Assay for human Vitamin D Receptor (VDR) (AID 2283022)
Procedure, shortened: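 RT-PCR/capillary electrophoresis read-out of reporter mRNA induction in transiently transfected HepG2; 24 h dosing; chimeric NR-Gal4 (TRANS format); gain-of-signal fit against DMSO baseline.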

For `NC(C(F)(F)F)C(F)(F)F`, the AC50 [1] was inconclusive: 150 µM, the outcome [2] was “inactive” and the AC50 [3] was inconclusive: 150 µM. The AC50 [4] was inconclusive: 150 µM, the AC50 [5] was inconclusive: 150 µM and the AC50 [6] was inconclusive: 150 µM. The outcome [7] was “inactive” and the outcome [8] was “inactive”.

`O=C1OC(=O)c2c(Br)c(Br)c(Br)c(Br)c21` was tested, and the outcome [1] was “inactive”, the outcome [2] was “inactive” and the AC50 [3] was inconclusive: 100 µM. For the same compound, the AC50 [4] was inconclusive: 100 µM, the AC50 [6] was inconclusive: 100 µM and the AC50 [7] was inconclusive: 8.06 µM.

`O=C(c1cc(O)c(O)c(O)c1)c1ccc(O)c(O)c1O` was tested, and the AC50 [1] was inconclusive: 100 µM, the outcome [2] was “inactive” and the outcome [3] was “inactive”. For the same compound, the outcome [4] was “inactive” and the AC50 [6] was inconclusive: 100 µM.

`Cc1ccc2ccc3ccc(C)cc3c2c1` was tested, and the outcome [1] was “inactive”, the AC50 [2] was inconclusive: 100 µM and the outcome [3] was “inactive”. For the same compound, the outcome [4] was “inactive”, the outcome [5] was “inactive” and the AC50 [6] was active: 12.9 µM. The outcome [8] was “inactive”.

With `CC(C)CC(C)(O)C#CC(C)(O)CC(C)C` (stereo unspecified) the AC50 [1] was inconclusive: 100 µM, the outcome [2] was “inactive” and the AC50 [3] was inconclusive: 24.7 µM. For the same compound, the AC50 [4] was inconclusive: 100 µM, the outcome [5] was “inactive” and the outcome [6] was “inactive”. For the same compound, the AC50 [8] was inconclusive: 23.7 µM.

`NC(=O)N1C(=O)C(C(=O)c2cc(Cl)cs2)c2cc(F)c(Cl)cc21` (stereo unspecified) was tested, and the AC50 [1] was active: 2.71 µM, the outcome [2] was “inactive” and the outcome [3] was “inactive”. The outcome [4] was “inactive” and the AC50 [6] was inconclusive: 11 µM.
